{"source": "PubChem BioAssay AID1159578 – Peter MacCallum Cancer Centre, 2015", "screen": "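siRNA pools altering how lymphatic endothelial cells close a scratch wound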 (primary screen)", "cells": "human lymphatic endothelial cells", "reagent": "siRNA pool against human genes, 40 nM", "duration": "48 h after transfection", "measurement": "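Cells stained with dye and imaged after a scratch; covered wound area and nuclei counted, duplicates averaged, migration set against mock wells and turned into a robust z-score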", "direction": "migration robust z-score: higher = faster migration into the scratch; nuclei per well: higher = more cells in the well", "active means": "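Pools averaging fewer than 3300 nuclei are never called; remaining pools count as changed when migration robust z lies outside -2 to 2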", "calls": "active = migration changed; inactive = no migration change, or too few cells", "note": "In all, the deposit lists about 18,000 reagents; below is a part drawn at random. About 1,030 of them (5.7%) were called active. 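Inactive calls also include pools with fewer than 3300 nuclei, whose migration was not assessed.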 The raw values are shown without normalisation. Not all columns of the deposit are shown."}
{"Gene":"PZP (PZP alpha-2-macroglobulin like)","migration robust z-score":-0.85,"migration class with cell-count check":"migration z between -2 and 2; enough cells","nuclei per well, duplicate mean":5102,"activity call":"inactive"}
{"Gene":"PDHA2 (pyruvate dehydrogenase E1 subunit alpha 2)","migration robust z-score":0.03,"migration class with cell-count check":"migration z between -2 and 2; enough cells","nuclei per well, duplicate mean":4386,"activity call":"inactive"}
{"Gene":"TMEM185A (transmembrane protein 185A)","migration robust z-score":0.43,"migration class with cell-count check":"migration z between -2 and 2; enough cells","nuclei per well, duplicate mean":4326,"activity call":"inactive"}
{"Gene":"CFAP141 (cilia and flagella associated protein 141)","migration robust z-score":-0.92,"migration class with cell-count check":"migration z between -2 and 2; enough cells","nuclei per well, duplicate mean":4370,"activity call":"inactive"}
{"Gene":"CCDC6 (coiled-coil domain containing 6)","migration robust z-score":-0.71,"migration class with cell-count check":"migration z between -2 and 2; enough cells","nuclei per well, duplicate mean":4195,"activity call":"inactive"}
{"Gene":"HRH1 (histamine receptor H1)","migration robust z-score":-0.72,"migration class with cell-count check":"migration z between -2 and 2; enough cells","nuclei per well, duplicate mean":7350,"activity call":"inactive"}
{"Gene":"IGSF5 (immunoglobulin superfamily member 5)","migration robust z-score":-0.05,"migration class with cell-count check":"migration z between -2 and 2; enough cells","nuclei per well, duplicate mean":5768,"activity call":"inactive"}
{"Gene":"NUP205 (nucleoporin 205)","migration robust z-score":0.58,"migration class with cell-count check":"migration z between -2 and 2; enough cells","nuclei per well, duplicate mean":5094,"activity call":"inactive"}
{"Gene":"PRPS1 (phosphoribosyl pyrophosphate synthetase 1)","migration robust z-score":-0.57,"migration class with cell-count check":"migration z between -2 and 2; enough cells","nuclei per well, duplicate mean":4324,"activity call":"inactive"}
{"Gene":"RPL7 (ribosomal protein L7)","migration robust z-score":-0.14,"migration class with cell-count check":"migration z between -2 and 2; enough cells","nuclei per well, duplicate mean":3807,"activity call":"inactive"}
{"Gene":"MOCS1 (molybdenum cofactor synthesis 1)","migration robust z-score":-0.03,"migration class with cell-count check":"migration z between -2 and 2; enough cells","nuclei per well, duplicate mean":6007,"activity call":"inactive"}
{"Gene":"BDP1 (BDP1 general transcription factor IIIB subunit)","migration robust z-score":-0.05,"migration class with cell-count check":"migration z between -2 and 2; enough cells","nuclei per well, duplicate mean":5706,"activity call":"inactive"}
{"Gene":"SARS2 (seryl-tRNA synthetase 2, mitochondrial)","migration robust z-score":-0.24,"migration class with cell-count check":"migration z between -2 and 2; enough cells","nuclei per well, duplicate mean":3920,"activity call":"inactive"}
{"Gene":"DNAJC12 (DnaJ heat shock protein family (Hsp40) member C12)","migration robust z-score":0.02,"migration class with cell-count check":"migration z between -2 and 2; enough cells","nuclei per well, duplicate mean":5762,"activity call":"inactive"}

2 consecutive entries already listed:
{"Gene":"CFAP141 (cilia and flagella associated protein 141)","migration robust z-score":-0.92,"migration class with cell-count check":"migration z between -2 and 2; enough cells","nuclei per well, duplicate mean":4370,"activity call":"inactive"}
{"Gene":"CCDC6 (coiled-coil domain containing 6)","migration robust z-score":-0.71,"migration class with cell-count check":"migration z between -2 and 2; enough cells","nuclei per well, duplicate mean":4195,"activity call":"inactive"}
